Laboratory results taken from patent US20160223570A1.
No constants are given. Whether binding was seen depends on the method and setting. Binding seen in cells or lysates may run through a third protein. Some binding calls cover weakened binding; strength is not graded here. Sequences can lack the tags named with a protein.

Amino acid sequences for entries named in this document (tags omitted). A change or cut given only in a name is not applied to a line headed by its entry.
UniProt P63165: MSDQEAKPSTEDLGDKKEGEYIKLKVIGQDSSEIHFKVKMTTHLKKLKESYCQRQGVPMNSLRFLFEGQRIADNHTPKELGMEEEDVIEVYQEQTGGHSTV

How the values were obtained:
[1] = target: myc-SUMO-1 (SUMO-1 tagged with c-myc) (human) (UniProt P63165); test: co-immunoprecipitation with anti-c-myc antibody, Western blot
[2] = target: myc-SUMO-1 (SUMO-1 tagged with c-myc) (human) (UniProt P63165); test: co-immunoprecipitation from transfected cells (FIGS. 22A-C)

binding [1]: binds | binding [2]: binds
B1: 3xFlag-PHB1 (wild type Prohibitin-1 with a triple Flag tag at the N-terminus) (protein, not shown: small tags and cut ends)
chain: AAKVFESIGKFGLALAVAGGVVNSALYNVDAGHRAVIFDRFRGVQDIVVGEGTHFLIPWVQKPIIFDCRSRPRNVPVITGSKDLQNVNITLRILFRPVASQLPRIFTSIGEDYDERVLPSITTEILKSVVARFDAGELITQRELVSRQVSDDLTERAATFGLILDDVSLTHLTFGKEFTEAVEAKQVAQQEAERARFVVEKAEQQKKAAIISAEGDSKAAELIANSLATAGDGLIELRKLEAAEDIAYQLSRSRNITYLPAGQSVLLQLPQ
